± gives the standard deviation. The list shows a part of the results, in another mix than the full data. The uncertainty is large for many entries. The list shows a part of the results.
Experiments:
[1] = system: MILI (PIWIL2) piRISC loaded with L1MC piRNA (26 nt); experiment: pre-steady-state target cleavage rate (min^-1); higher = faster piRNA-guided slicing of the target; conditions: guide: L1MC piRNA 5'p-UAACUAAAUACUAUGCAAGCUGUAGG
Procedure, shortened: (§1)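 A burst-and-steady-state fit was used to obtain the pre-steady-state cleavage rate. The input data were sequencing reads of uncleaved targets, normalised to depth and to weakly complementary targets, from a […] transcribed, DNA-blocked target RNA library mixed with 1 nM active affinity-purified piRISC holding one synthetic guide, with or without 500 nM GTSF1 partner protein, in HEPES–potassium acetate buffer at 33 °C for 0–8 or 0–960 min. Three trials were pooled and k3 was capped at 0.0001 min^-1.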

[2] = system: MIWI (PIWIL1) piRISC loaded with L1MC piRNA (30 nt); experiment: as above; conditions: guide: L1MC piRNA 5'p-UAACUAAAUACUAUGCAAGCUGUAGGUCCU; auxiliary factor: none (no GTSF1)
Procedure, shortened: as §1

[3] = system: EfPiwi piRISC loaded with L1MC piRNA (26 nt); experiment: pre-steady-state target cleavage rate (min^-1); guide: L1MC piRNA 5'p-UAACUAAAUACUAUGCAAGCUGUAGG; MIWI and MILI are mouse PIWI proteins and EfPiwi is from a freshwater sponge; tags in brackets are library labels; higher = faster piRNA-guided slicing of the target
Procedure, shortened: as §1

[4] = auxiliary factor: 500 nM mouse GTSF1
[5] = auxiliary factor: none (no GTSF1)
[6] = auxiliary factor: 500 nM Ephydatia muelleri Gtsf1
[7] = auxiliary factor: none (no Gtsf1)

Sequence | pre-steady-state target cleavage rate [1, 4] | pre-steady-state target cleavage rate [1, 5] | pre-steady-state target cleavage rate [2] | pre-steady-state target cleavage rate [3, 6] | pre-steady-state target cleavage rate [3, 7]
UCCUGGAUGUCGAACCCUAGUAUUUAGUUA | 0.00179 ± 0.0048 | 0.00223 ± 0.0032 | 0.000735 ± 0.0084 | < 0.0001 | < 0.0001
UCCUGGAUCAGCUUGCAUAGAAUUUUCAAA | 0.00426 ± 0.0044 | 0.000732 ± 0.008 | 0.00158 ± 0.0037 | 0.00068 ± 0.0048 | 0.000241 ± 0.032
UCCUGGAUGUCGAUGCUAUGUAUUUAGUUA | 0.000508 ± 0.014 | 0.000498 ± 0.0091 | 0.000682 ± 0.0097 | 0.000154 ± 0.023 | 0.000238 ± 0.021
UCCUGGAUGUCCUUGCAUAGUAUUUGUUA | 0.0123 ± 0.0057 | 0.000646 ± 0.0097 | 0.00094 ± 0.0086 | 0.000519 ± 0.0054 | 0.000324 ± 0.023
UCCUGGAUGUCGUUGCUUUGUAUUUAGUUA | 0.00191 ± 0.0058 | 0.00172 ± 0.0049 | 0.000697 ± 0.0097 | 0.000178 ± 0.029 | 0.000202 ± 0.04
UCCUGGUACAGCUUGCAUAGUAUUAUCUAA | 0.0327 ± 0.012 | 0.00122 ± 0.0054 | 0.00114 ± 0.004 | 0.00312 ± 0.0027 | 0.000492 ± 0.014
UCCUGGAUGUCGAUGCAUAGUAUUUAGUUC [g2:g17:cont:t1C] | 0.0657 ± 0.0091 | 0.00831 ± 0.0023 | 0.00199 ± 0.0042 | 0.000635 ± 0.0065 | 0.000319 ± 0.02
UCCUGGAUGUCGAAGCAUAGGAUUUAGUUA | 0.000335 ± 0.01 | 0.00156 ± 0.0033 | 0.000554 ± 0.0064 | 0.000147 ± 0.024 | < 0.0001
UCCUGGAUGUCGAAGCAUAGUGUUUAGUUA | 0.0115 ± 0.0044 | 0.00454 ± 0.0019 | 0.0018 ± 0.004 | 0.000204 ± 0.03 | 0.000589 ± 0.015
UCCUGGUACUCCUUGCAUAGUAUUUACAAA | 0.0123 ± 0.006 | 0.000808 ± 0.0082 | 0.00129 ± 0.0066 | 0.000535 ± 0.0067 | 0.000151 ± 0.058
UCCUGGAUGUCCUUGCAUAGUAUUAACUUA | 0.0115 ± 0.0049 | 0.00126 ± 0.0055 | 0.00119 ± 0.0066 | 0.000973 ± 0.0073 | 0.000196 ± 0.029
UCCUGGAACAGGAUGCAUAGUAUUUACAAA | 0.0486 ± 0.017 | 0.000307 ± 0.014 | 0.000445 ± 0.013 | 0.00226 ± 0.0018 | 0.000184 ± 0.032
UCCUGCUAGUCCUUGCAUAGUAUUUACAAA | 0.0056 ± 0.004 | 0.00051 ± 0.011 | 0.00106 ± 0.0047 | 0.00246 ± 0.0038 | 0.000286 ± 0.018

For reference, part of the list above:
Sequence | pre-steady-state target cleavage rate [1, 4] | pre-steady-state target cleavage rate [1, 5] | pre-steady-state target cleavage rate [2] | pre-steady-state target cleavage rate [3, 6] | pre-steady-state target cleavage rate [3, 7]
UCCUGGAUGUCGAACCCUAGUAUUUAGUUA | 0.00179 ± 0.0048 | 0.00223 ± 0.0032 | 0.000735 ± 0.0084 | < 0.0001 | < 0.0001
UCCUGGAUCAGCUUGCAUAGAAUUUUCAAA | 0.00426 ± 0.0044 | 0.000732 ± 0.008 | 0.00158 ± 0.0037 | 0.00068 ± 0.0048 | 0.000241 ± 0.032

Source: the supplement of paper PMC10338343
